Data set [1] addresses T1, Sumo-SiwR (Mycobacterium smegmatis) (UniProt A0QS56).
T1 sequence (looked up, limits assumed): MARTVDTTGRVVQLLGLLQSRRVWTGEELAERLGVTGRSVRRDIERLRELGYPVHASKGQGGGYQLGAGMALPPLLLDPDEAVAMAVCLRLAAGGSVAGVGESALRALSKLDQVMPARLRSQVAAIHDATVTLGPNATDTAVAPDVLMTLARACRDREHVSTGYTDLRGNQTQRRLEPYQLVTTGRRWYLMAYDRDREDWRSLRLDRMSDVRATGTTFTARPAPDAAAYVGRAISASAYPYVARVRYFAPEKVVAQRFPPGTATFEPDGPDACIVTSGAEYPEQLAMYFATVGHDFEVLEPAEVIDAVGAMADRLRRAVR
As to the kind of experiment: EMSA. Particulars: EMSA: 5 mM HEPES-KOH pH 7.0, 30 mM NaCl, 2.5% Ficoll 400K, 1% glycerol, 5 nM probe (10 nM in Fig. 2a legend), 37 °C 15 min; recombinant protein; protein details: His6-TEV-Sumo N-terminal fusion; label: 5'-FAM on strand 1. (Mobility shift assays separate free from complexed probe on a gel.)

Data set [2] has as its target Sumo-SiwR ΔHTH (Mycobacterium smegmatis) (UniProt A0QS56). As to the kind of experiment: EMSA. The settings on record: EMSA: 5 mM HEPES-KOH pH 7.0, 30 mM NaCl, 2.5% Ficoll 400K, 1% glycerol, 5 nM probe (10 nM in Fig. 2a legend), 37 °C 15 min; recombinant protein; protein details: His6-TEV-Sumo N-terminal fusion; label: 5'-FAM on strand 2.

The exact form of at least one protein or probe is not confirmed. For some assays here: No signal at the amounts used counts as a negative. For some assays here: Weaker means in comparison with the reference protein, sequence or condition of that experiment. For some assays here: Protein sequences can lack the tags named with them.

As for “GACAGGCATAGCATGGCTTTCGCAAGGCTAAAGTGCGGCAGACTTGTCGC / GCGACAAGTCTGCCGCACTTTAGCCTTGCGAAAGCCATGCTATGCCTGT [scrambled palindrome]”, the binding result in data set [1] is listed as “binds more weakly”.

In the case of “TGACCCACCCTGACAGGCATATAGGACAGTTCCGGTCCTAAAAGTGCGGCAGACTTGTCG (double strand) [msmeg_1357-56 promoter]”, the binding result in data set [2] was “no binding”.

The record behind these values is paper PMC10693628, “Novel WYL domain-containing transcriptional activator acts in response to genotoxic stress in rapidly growing mycobacteria” (Communications Biology, 2023).
